Measurements as given in paper PMC2647735.
No constants are given. Whether binding was seen depends on the method and setting. For some of these results: In cells and extracts the contact can be indirect. Some results given as binding are weak or reduced against the parent protein; the word gives no strength.

Chains of the proteins cited; added tags and fusions are not shown.
UniProt Q2HR64: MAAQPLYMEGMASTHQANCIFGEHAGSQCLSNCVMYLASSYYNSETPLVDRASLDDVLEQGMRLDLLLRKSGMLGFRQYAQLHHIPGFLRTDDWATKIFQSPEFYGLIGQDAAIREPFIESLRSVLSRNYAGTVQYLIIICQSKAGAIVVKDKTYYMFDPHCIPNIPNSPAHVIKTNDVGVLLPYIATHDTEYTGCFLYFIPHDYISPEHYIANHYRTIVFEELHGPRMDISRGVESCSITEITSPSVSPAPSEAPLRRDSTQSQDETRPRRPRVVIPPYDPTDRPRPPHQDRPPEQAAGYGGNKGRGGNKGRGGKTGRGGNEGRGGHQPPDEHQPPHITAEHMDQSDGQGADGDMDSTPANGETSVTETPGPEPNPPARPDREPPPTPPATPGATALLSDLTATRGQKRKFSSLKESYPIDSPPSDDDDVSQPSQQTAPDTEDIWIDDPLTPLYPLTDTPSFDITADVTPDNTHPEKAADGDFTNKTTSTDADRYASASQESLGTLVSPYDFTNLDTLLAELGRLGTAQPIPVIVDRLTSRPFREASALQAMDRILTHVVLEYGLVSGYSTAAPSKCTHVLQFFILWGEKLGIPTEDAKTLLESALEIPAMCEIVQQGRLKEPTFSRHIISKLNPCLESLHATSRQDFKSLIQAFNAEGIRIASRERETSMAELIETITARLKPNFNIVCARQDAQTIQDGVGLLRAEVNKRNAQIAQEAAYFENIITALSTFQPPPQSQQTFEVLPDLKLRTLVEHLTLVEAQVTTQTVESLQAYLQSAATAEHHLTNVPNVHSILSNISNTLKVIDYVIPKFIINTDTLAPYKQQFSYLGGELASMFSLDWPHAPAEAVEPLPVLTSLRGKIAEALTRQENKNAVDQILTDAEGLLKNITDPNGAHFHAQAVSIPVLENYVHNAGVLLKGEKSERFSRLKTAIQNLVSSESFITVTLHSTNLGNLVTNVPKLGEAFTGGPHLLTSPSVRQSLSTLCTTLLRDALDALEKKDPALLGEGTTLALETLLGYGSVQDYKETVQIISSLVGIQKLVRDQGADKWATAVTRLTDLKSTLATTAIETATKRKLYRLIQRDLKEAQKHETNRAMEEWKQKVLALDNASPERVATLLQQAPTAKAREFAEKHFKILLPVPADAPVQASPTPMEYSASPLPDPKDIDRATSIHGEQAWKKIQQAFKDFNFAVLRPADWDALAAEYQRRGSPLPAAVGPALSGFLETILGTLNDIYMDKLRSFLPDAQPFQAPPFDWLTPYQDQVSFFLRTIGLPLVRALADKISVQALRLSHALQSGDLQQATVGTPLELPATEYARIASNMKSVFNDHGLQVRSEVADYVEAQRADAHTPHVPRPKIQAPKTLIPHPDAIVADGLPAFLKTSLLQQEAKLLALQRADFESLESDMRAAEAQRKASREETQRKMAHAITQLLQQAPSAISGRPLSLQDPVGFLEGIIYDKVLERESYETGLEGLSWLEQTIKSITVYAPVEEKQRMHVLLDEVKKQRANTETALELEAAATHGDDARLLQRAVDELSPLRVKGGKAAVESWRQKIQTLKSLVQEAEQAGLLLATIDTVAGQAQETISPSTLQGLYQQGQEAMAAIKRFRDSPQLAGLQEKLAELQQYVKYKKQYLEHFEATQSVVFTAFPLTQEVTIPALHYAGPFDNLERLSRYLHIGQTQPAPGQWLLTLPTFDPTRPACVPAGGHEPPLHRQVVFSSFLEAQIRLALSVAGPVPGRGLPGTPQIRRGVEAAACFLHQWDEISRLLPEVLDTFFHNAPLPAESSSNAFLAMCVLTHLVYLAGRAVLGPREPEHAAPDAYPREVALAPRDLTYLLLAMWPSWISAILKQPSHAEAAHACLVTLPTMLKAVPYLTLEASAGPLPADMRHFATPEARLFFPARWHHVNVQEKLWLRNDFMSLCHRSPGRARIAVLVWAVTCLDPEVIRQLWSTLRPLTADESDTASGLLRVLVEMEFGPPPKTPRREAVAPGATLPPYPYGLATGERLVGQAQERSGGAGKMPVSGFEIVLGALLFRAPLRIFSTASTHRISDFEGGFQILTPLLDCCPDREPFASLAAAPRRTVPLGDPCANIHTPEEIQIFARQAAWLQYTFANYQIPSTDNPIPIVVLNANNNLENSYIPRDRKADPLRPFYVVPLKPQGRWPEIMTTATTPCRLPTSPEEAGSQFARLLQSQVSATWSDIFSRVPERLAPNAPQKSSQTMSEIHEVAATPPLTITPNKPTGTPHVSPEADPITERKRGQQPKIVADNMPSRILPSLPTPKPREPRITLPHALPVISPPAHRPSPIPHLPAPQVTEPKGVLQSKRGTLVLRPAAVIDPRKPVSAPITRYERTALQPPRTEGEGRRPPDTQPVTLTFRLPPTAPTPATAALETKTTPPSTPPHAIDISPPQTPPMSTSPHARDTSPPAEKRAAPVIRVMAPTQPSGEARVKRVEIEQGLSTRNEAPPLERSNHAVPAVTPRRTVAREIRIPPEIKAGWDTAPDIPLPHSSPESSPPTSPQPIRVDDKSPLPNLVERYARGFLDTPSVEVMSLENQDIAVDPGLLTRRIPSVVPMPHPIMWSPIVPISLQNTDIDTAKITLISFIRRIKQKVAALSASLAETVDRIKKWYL
UniProt F5HDE4: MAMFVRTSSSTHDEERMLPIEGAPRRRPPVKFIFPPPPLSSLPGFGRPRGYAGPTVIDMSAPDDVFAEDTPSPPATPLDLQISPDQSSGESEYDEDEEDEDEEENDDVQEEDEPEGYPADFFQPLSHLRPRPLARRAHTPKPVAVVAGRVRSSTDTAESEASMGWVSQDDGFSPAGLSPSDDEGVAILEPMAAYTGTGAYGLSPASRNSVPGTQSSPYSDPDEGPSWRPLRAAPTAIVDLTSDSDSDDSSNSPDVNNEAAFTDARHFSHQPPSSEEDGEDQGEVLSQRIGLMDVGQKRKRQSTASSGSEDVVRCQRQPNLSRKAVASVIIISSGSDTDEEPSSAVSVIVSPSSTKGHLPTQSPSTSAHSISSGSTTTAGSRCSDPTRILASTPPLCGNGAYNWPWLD

Legend:
[1] = target: KSHV ORF64 (yeast two-hybrid, unpublished data) (Kaposi's sarcoma-associated herpesvirus (KSHV, HHV-8)) (UniProt Q2HR64); experiment: two-hybrid; further mapping of ORF45 against other virion proteins by Y2H; unpublished data
[2] = target: T1, KSHV ORF65 (capsid protein) (Kaposi's sarcoma-associated herpesvirus (KSHV, HHV-8)) (UniProt Q2HR63); experiment: co-IP; lysates of TPA-induced 293T carrying BAC36 or BAC-stop45; IP with anti-ORF65, Western blot for capsid and tegument proteins
T1 sequence: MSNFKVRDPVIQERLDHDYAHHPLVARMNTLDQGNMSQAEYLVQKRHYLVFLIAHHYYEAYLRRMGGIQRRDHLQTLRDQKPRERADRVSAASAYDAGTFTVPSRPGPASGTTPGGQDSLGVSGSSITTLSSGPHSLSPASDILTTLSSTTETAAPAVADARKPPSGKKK

[3] = target: T1, KSHV ORF65 (capsid protein) (Kaposi's sarcoma-associated herpesvirus (KSHV, HHV-8)); experiment: co-IP; nocodazole-treated and TPA-induced BCBL-1 cells; IP with anti-ORF65, Western blot for capsid and tegument proteins; data not shown

Substance | binding [1] | binding [2] | binding [3]
KSHV ORF45 (yeast two-hybrid mapping against ORF64 and ORF63, unpublished data) (from UniProt F5HDE4 1-407) | binds |  | 
KSHV ORF64 (tegument protein) (from UniProt Q2HR64 1-2635) |  | binds | binds
KSHV ORF45 (expressed from the virus in infected cells) (from UniProt F5HDE4 1-407) |  |  | binds
